# Assay results reported in the supplement of paper PMC11438910.
# The other results are listed elsewhere or left out. Only a few entries rise above the background.
# B1: 4-173.2 (protein)
# chain 1: QLQLQESGPGLVKPSETLSLTCAVSGGSINSNYWSWIRQPPGKGLDWIGRISGSGGSTDYNPSLKSRVTISTDTSKTQFSLKLRSVTAADTAVYYCGRGSYQIDYWGQGILVTVSS
# chain 2: QAALTQPPSMSGSPGQSVTISCTGTSSDIGGYNRVSWYQQYPGKAPKLMIYEVSKRPSGVSDRFSGSKSGNTASLTISGLQAADEADYYCSSYAGSKALFGGGTRLTVL
# Key:
# Experiment in all cases: fluorescence intensity of antibody binding to polysaccharide-coupled beads; higher = stronger binding
# [1] = target: pneumococcal polysaccharide Pn11F
# [2] = target: pneumococcal polysaccharide Pn12A
# [3] = target: pneumococcal polysaccharide Pn12B
# [4] = target: pneumococcal polysaccharide Pn12F
# [5] = target: pneumococcal polysaccharide Pn13
# [6] = target: pneumococcal polysaccharide Pn14
# [7] = target: pneumococcal polysaccharide Pn15A
# [8] = target: pneumococcal polysaccharide Pn15B
# [9] = target: pneumococcal polysaccharide Pn15C
# [10] = target: pneumococcal polysaccharide Pn15F
# [11] = target: pneumococcal polysaccharide Pn16A
# [12] = target: pneumococcal polysaccharide Pn16F
# [13] = antibody concentration 2.8593 ng/mL
# [14] = antibody concentration 15.2894 ng/mL
# [15] = antibody concentration 81.7561 ng/mL
# [16] = antibody concentration 437.17 ng/mL
# [17] = antibody concentration 2337.65 ng/mL
# [18] = antibody concentration 12500 ng/mL
# [19] = antibody concentration 0.1 ng/mL
# [20] = antibody concentration 0.534724 ng/mL
binder,measurement,setting,value
B1,fluorescence intensity,[1]; [13],15 MFI
same,fluorescence intensity,[1]; [14],15 MFI
same,fluorescence intensity,[1]; [15],14 MFI
same,fluorescence intensity,[1]; [16],15.5 MFI
same,fluorescence intensity,[1]; [17],16.5 MFI
same,fluorescence intensity,[1]; [18],29 MFI
same,fluorescence intensity,[2]; [19],14 MFI
same,fluorescence intensity,[2]; [20],13.5 MFI
same,fluorescence intensity,[2]; [13],14.5 MFI
same,fluorescence intensity,[2]; [14],15.2 MFI
same,fluorescence intensity,[2]; [15],14.2 MFI
same,fluorescence intensity,[2]; [16],16 MFI
same,fluorescence intensity,[2]; [17],20.5 MFI
same,fluorescence intensity,[2]; [18],46 MFI
same,fluorescence intensity,[3]; [19],16 MFI
same,fluorescence intensity,[3]; [20],15 MFI
same,fluorescence intensity,[3]; [13],15 MFI
same,fluorescence intensity,[3]; [14],16 MFI
same,fluorescence intensity,[3]; [15],16.5 MFI
same,fluorescence intensity,[3]; [16],17 MFI
same,fluorescence intensity,[3]; [17],20 MFI
same,fluorescence intensity,[3]; [18],48.5 MFI
same,fluorescence intensity,[4]; [19],18.8 MFI
same,fluorescence intensity,[4]; [20],19.5 MFI
same,fluorescence intensity,[4]; [13],18.5 MFI
same,fluorescence intensity,[4]; [14],18.5 MFI
same,fluorescence intensity,[4]; [15],19.2 MFI
same,fluorescence intensity,[4]; [16],20 MFI
same,fluorescence intensity,[4]; [17],23.5 MFI
same,fluorescence intensity,[4]; [18],61.8 MFI
same,fluorescence intensity,[5]; [19],20 MFI
same,fluorescence intensity,[5]; [20],19 MFI
same,fluorescence intensity,[5]; [13],18.5 MFI
same,fluorescence intensity,[5]; [14],20.5 MFI
same,fluorescence intensity,[5]; [15],18.5 MFI
same,fluorescence intensity,[5]; [16],19.5 MFI
same,fluorescence intensity,[5]; [17],22.5 MFI
same,fluorescence intensity,[5]; [18],45.8 MFI
same,fluorescence intensity,[6]; [19],14 MFI
same,fluorescence intensity,[6]; [20],14 MFI
same,fluorescence intensity,[6]; [13],15 MFI
same,fluorescence intensity,[6]; [14],15 MFI
same,fluorescence intensity,[6]; [15],14.5 MFI
same,fluorescence intensity,[6]; [16],18.8 MFI
same,fluorescence intensity,[6]; [17],38.5 MFI
same,fluorescence intensity,[6]; [18],276 MFI
same,fluorescence intensity,[7]; [19],12 MFI
same,fluorescence intensity,[7]; [20],13.2 MFI
same,fluorescence intensity,[7]; [13],11.5 MFI
same,fluorescence intensity,[7]; [14],13 MFI
same,fluorescence intensity,[7]; [15],12 MFI
same,fluorescence intensity,[7]; [16],13.5 MFI
same,fluorescence intensity,[7]; [17],13.5 MFI
same,fluorescence intensity,[7]; [18],21.5 MFI
same,fluorescence intensity,[8]; [19],19.5 MFI
same,fluorescence intensity,[8]; [20],20 MFI
same,fluorescence intensity,[8]; [13],19.5 MFI
same,fluorescence intensity,[8]; [14],17.8 MFI
same,fluorescence intensity,[8]; [15],21 MFI
same,fluorescence intensity,[8]; [16],24.2 MFI
same,fluorescence intensity,[8]; [17],26 MFI
same,fluorescence intensity,[8]; [18],35.8 MFI
same,fluorescence intensity,[9]; [19],17 MFI
same,fluorescence intensity,[9]; [20],17.5 MFI
same,fluorescence intensity,[9]; [13],15.2 MFI
same,fluorescence intensity,[9]; [14],17.8 MFI
same,fluorescence intensity,[9]; [15],14.2 MFI
same,fluorescence intensity,[9]; [16],17 MFI
same,fluorescence intensity,[9]; [17],21.5 MFI
same,fluorescence intensity,[9]; [18],26 MFI
same,fluorescence intensity,[10]; [19],17.5 MFI
same,fluorescence intensity,[10]; [20],17.5 MFI
same,fluorescence intensity,[10]; [13],17.5 MFI
same,fluorescence intensity,[10]; [14],16.8 MFI
same,fluorescence intensity,[10]; [15],17.5 MFI
same,fluorescence intensity,[10]; [16],19 MFI
same,fluorescence intensity,[10]; [17],22.5 MFI
same,fluorescence intensity,[10]; [18],37.8 MFI
same,fluorescence intensity,[11]; [19],14.8 MFI
same,fluorescence intensity,[11]; [20],15.8 MFI
same,fluorescence intensity,[11]; [13],15.8 MFI
same,fluorescence intensity,[11]; [14],11.5 MFI
same,fluorescence intensity,[11]; [15],15.8 MFI
same,fluorescence intensity,[11]; [16],14.2 MFI
same,fluorescence intensity,[11]; [17],17 MFI
same,fluorescence intensity,[11]; [18],32 MFI
same,fluorescence intensity,[12]; [19],23 MFI
same,fluorescence intensity,[12]; [20],24.5 MFI
same,fluorescence intensity,[12]; [13],24.2 MFI
same,fluorescence intensity,[12]; [14],23.5 MFI

# A section from further up:
binder,measurement,setting,value
B1,fluorescence intensity,[9]; [13],15.2 MFI
same,fluorescence intensity,[9]; [14],17.8 MFI
same,fluorescence intensity,[9]; [15],14.2 MFI
same,fluorescence intensity,[9]; [16],17 MFI
same,fluorescence intensity,[9]; [17],21.5 MFI
